PubChem BioAssay AID493246 | Drosophila RNAi Screening Center – 2011

- Test: 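Genome-wide search for dsRNAs that reduce cell number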 (primary screen)
- Cell system: Drosophila Kc and S2R+ cells
- Knock-down reagent: long dsRNA against Drosophila genes
- Measurement: 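Raw, unnormalised count of remaining cells in each well; per-plate z-scores of cell number underlie the calls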
- Scale: Kc cell number and S2R+ cell number: higher = more cells remaining
- Call rule: 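Counted as a hit if cell number falls by a z-score of at least 3 within its plate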
The screen tested about 21,000 reagents; this is a random part of those that have a named target and a result. In the full data, 429 (2%) got an active call. 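Values are raw and not normalised between plates; calls rest on per-plate z-scores that were not deposited.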 A plus sign joins genes that one reagent is predicted to hit. Reagent sequences are not shown. Not given: the amount of reagent, the time to read-out.

| Target gene | DRSC id | Kc cell number, rep 1 | Kc cell number, rep 2 | S2R+ cell number, rep 1 | S2R+ cell number, rep 2 | Call |
| --- | --- | --- | --- | --- | --- | --- |
| CG42233 (GeneID 43754) | DRSC14328 | 1.56e6 | 1.49e6 | 9.56e5 | 1.11e6 | inactive |
| CG42233 (GeneID 43754) | DRSC15416 | 1.49e6 | 1.47e6 | 1.01e6 | 1.08e6 | inactive |
| CCT1 (GeneID 42649) | DRSC16877 | 1.58e6 | 1.52e6 | 9.19e5 | 1.11e6 | inactive |
| Cep135 (GeneID 39647) | DRSC09345 | 1.66e6 | 1.78e6 | 1.13e6 | 1.31e6 | inactive |
| Cep135 (GeneID 39647) | DRSC10244 | 1.45e6 | 1.50e6 | 1.25e6 | 1.27e6 | inactive |
| alphaTub84D (GeneID 40904) | DRSC12623 | 1.46e6 | 1.56e6 | 8.57e5 | 9.22e5 | active |
| CG7091 (GeneID 41590) | DRSC12944 | 1.36e6 | 1.57e6 | 1.06e6 | 1.18e6 | inactive |
| CG7091 (GeneID 41590) | DRSC16197 | 1.54e6 | 1.54e6 | 1.15e6 | 1.26e6 | inactive |
| mRpL20 (GeneID 39477) | DRSC09828 | 1.12e6 | 1.32e6 | 1.13e6 | 1.22e6 | inactive |
| Orai (GeneID 37040) | DRSC05684 | 5.79e5 | – | 7.94e5 | – | inactive |
| CG18324 (GeneID 36568) | DRSC06721 | 1.41e6 | 1.43e6 | 1.14e6 | 1.18e6 | inactive |
| CG8012 (GeneID 50305) | DRSC10951 | 1.65e6 | 1.59e6 | 1.30e6 | 1.13e6 | inactive |
| CG1738 (GeneID 32075) | DRSC19772 | 1.71e6 | 1.60e6 | 1.16e6 | 1.29e6 | inactive |
| CG14443 (GeneID 31595) | DRSC17936 | 1.52e6 | 1.52e6 | 1.04e6 | 1.11e6 | inactive |
| Roc1b + Cdc5 | DRSC08687 | 1.53e6 | 1.38e6 | 8.32e5 | 9.65e5 | inactive |
| CG7320 (GeneID 40010) | DRSC10810 | 1.32e6 | 1.47e6 | 1.26e6 | 1.34e6 | inactive |
| CG11825 (GeneID 36099) | DRSC06090 | 1.51e6 | 1.63e6 | 1.24e6 | 1.38e6 | inactive |
| Arp10 (GeneID 32969) | DRSC19448 | 1.42e6 | 1.54e6 | 1.03e6 | 1.19e6 | inactive |
| Rpn13R (GeneID 31433) | DRSC18404 | 1.53e6 | 1.57e6 | 1.12e6 | 1.34e6 | inactive |
| Ge-1 (GeneID 34541) | DRSC02938 | 1.24e6 | 1.31e6 | 1.06e6 | 1.16e6 | inactive |
| CG3640 (GeneID 37942) | DRSC04399 | 1.72e6 | 1.79e6 | 1.42e6 | 1.66e6 | inactive |
| CG31729 (GeneID 34736) | DRSC02524 | 1.34e6 | 1.46e6 | 1.21e6 | 1.29e6 | inactive |
| CG31729 (GeneID 34736) | DRSC02946 | 1.53e6 | 1.66e6 | 1.22e6 | 1.43e6 | inactive |
| CG5062 (GeneID 31435) | DRSC18385 | 1.55e6 | 1.58e6 | 1.16e6 | 1.23e6 | inactive |

In a second layout: entries from further up.
Target gene | DRSC id | Kc cell number, rep 1 | Kc cell number, rep 2 | S2R+ cell number, rep 1 | S2R+ cell number, rep 2 | Call
Cep135 (GeneID 39647) | DRSC09345 | 1.66e6 | 1.78e6 | 1.13e6 | 1.31e6 | inactive
Cep135 (GeneID 39647) | DRSC10244 | 1.45e6 | 1.50e6 | 1.25e6 | 1.27e6 | inactive
alphaTub84D (GeneID 40904) | DRSC12623 | 1.46e6 | 1.56e6 | 8.57e5 | 9.22e5 | active
CG7091 (GeneID 41590) | DRSC12944 | 1.36e6 | 1.57e6 | 1.06e6 | 1.18e6 | inactive
